Library screen at single concentrations

Source: ChEMBL document CHEMBL3988442, “University of Dundee, Small-Polar-MMV Screening Library” (2021).

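Whole-parasite assay of Trypanosoma brucei over 72 hours; the read-out is not stated. Concentration: 30 µM. Higher reads as stronger inhibition (inferred: compounds with an IC50 in retests scored well above the rest). Values scatter widely below zero; nearly all retest evidence comes from the higher of the two concentrations used. About 64,000 compounds were tested under these conditions; 1.5% (about 940) showed 50% or more at least once.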

Results are given as percent effect. The controls that fix the scale are not given in the record; negative values are as filed. Compounds were drawn at random from those tested, without regard to their results.

| compound | Percent Effect |
|---|---|
| `CC(=O)N1CCCC(c2cccc(-n3ccnc3)n2)C1` (configuration not stated) | 11.75% |
| `CCN(Cc1ccncc1)C(=O)C1COc2c(cccc2OC)C1` (configuration not stated) | -51.82% |
| `CC(C)c1ccc(OCCC(=O)N2CCC(C(N)=O)CC2)cc1` | 3.192% |
| `CN(C)c1ncc(C2Nc3ccccc3C3=NCCCN32)cn1.Cl` (configuration not stated) | -6.507% |
| `CN(C)CCN(Cc1ccc(Cl)cc1)C(=O)c1cc[nH]n1` | -7.9% |
| `Cc1noc(NC(=O)c2ccc(F)cc2)n1` | 23.19% |
| `Cc1occc1C(=O)N1CCCn2cnc(CN3CCCC3=O)c2C1` | -53.83% |
| `Cc1cc(N2CCCC(c3[nH]ncc3Cc3ccccc3)C2)nc(N)n1` (configuration not stated) | -10.7% |
| `CS(=O)(=O)N[C@H]1CN(C(=O)CCc2ccco2)C[C@@H]1C1CC1` | 4.863% |
| `FC(F)(F)c1ccc2[nH]c([C@H]3CCNC3)nc2c1` | 11.88% |
| `Cc1cccc2[nH]c(C3CCN(C(=O)c4cnc[nH]c4=O)CC3)nc12` | -14.76% |
| `OC(CN1CCC(c2ccn[nH]2)CC1)c1cc(F)ccc1F` (configuration not stated) | 3.369% |
| `CCOCC1CN(C(=O)c2ccncn2)Cc2cnn(C)c21.O=C(O)C(F)(F)F` (configuration not stated) | -62.58% |
| `COc1cc(-c2cnnc(NCCCOC(C)C)n2)cc(OC)c1OC` | -50.84% |
| `[H][C@]12CC[C@]([H])(CN(C(=O)c3cnc(O)cn3)C1)N(Cc1ccccc1)C2` | -3.337% |
| `CCOC(=O)N1CCC(C(=O)Nc2nnc(C(F)(F)F)[nH]2)CC1` | -61.34% |
| `Cc1n[nH]c(=O)c2c(NC(=O)CN3CCC(C)CC3)oc(C)c12` | 17.87% |
| `CCOC(=O)C1(CCOC)CCN(Cc2nccn2CC)CC1` | -0.1521% |
| `Cc1cc(C)n(-c2ccc(C(C)NS(N)(=O)=O)cc2)n1` (configuration not stated) | 3.519% |
| `O=C(Nc1cc(C(F)(F)F)c[nH]c1=O)C1CCCN1` (configuration not stated) | -21.91% |
| `Cl.O=C1CC2(CCCNC2)C(=O)N1Cc1cccc(F)c1` (configuration not stated) | -4.571% |
| `CCn1nc(C)c(CN2CCNCC2)c1C` | -8.906% |
| `CCN(Cc1noc(C2CCC2)n1)C(=O)c1cnc2ccccc2c1` | -24.13% |
| `O=c1ccc(S(=O)(=O)N2CCCC2)cn1CC1CCCCO1` (configuration not stated) | -33.8% |
| `CC(=O)Nc1cccc(OCCNC(=O)N(C)Cc2ccncc2)c1` | 8.183% |
| `COCC(=O)N1CCC(c2cc3ncccc3c(O)n2)CC1` | -16.42% |
| `O=C(NCc1ccccc1Cn1ccnc1)N1CCOCC1` | -30.81% |
| `COc1cc(C(=O)O)ccc1OCC(=O)NC(C)c1ccc(F)cc1` (configuration not stated) | -14.96% |
| `CCc1ccccc1NC(=O)N1CCn2cnc(COC)c2C1` | -8.151% |
| `Cc1nc2n(n1)CC(Nc1nc(C(F)(F)F)nc3ccccc13)CC2` (configuration not stated) | 10.16% |
| `CC(=O)N1CCC2(CC1)CC(Oc1ccccc1)CO2` (configuration not stated) | -63.88% |
| `CCOCCCNC(=O)c1cc(C)nc(N2CCCC2)n1` | -6.488% |
| `CCOC1CCN(C(=O)Nc2ccc(=O)n(C)c2)CC1` | -8.326% |
| `CCN(C)c1ncnc2c1CCN(S(=O)(=O)c1ccccc1)CC2.O=C(O)C(F)(F)F` | -11.6% |
| `CN1CCOCC2(CCCN(C(=O)c3cn(C)cn3)C2)C1.O=C(O)C(F)(F)F` (configuration not stated) | -0.07981% |
| `CN(Cc1noc(-c2ccccc2)n1)C(=O)CSc1nnc(N)s1` | -26.22% |
| `[H][C@]12CC[C@]([H])(CN(S(=O)(=O)N(C)C)C1)N(C(=O)c1cc(C(C)C)oc1C)C2` | -140% |
| `CC(C)c1nnc(CN2CCC3(CC2)Nc2ccccc2NC3=O)o1` | -35.26% |
| `O=C(Cn1cnc2ccsc2c1=O)NCCCc1nnc2ccccn12` | -17.21% |
| `O=C(NCC1CC1)C1CN(C(=O)c2ccncc2)CC12CCOCC2` (configuration not stated) | 11.04% |
| `CCC(C)(C)NC(=O)COC(=O)c1cc(C)ccc1NC(=O)N(C)C` | -20.36% |
| `Cc1ccc(C(=O)N(Cc2ccc(F)cc2)C2CC2)c(=O)[nH]1` | -8.668% |
| `CCN(C)C(=O)c1ccc(N2CCC(Oc3cccc(F)c3)CC2)nc1` | -22.71% |
| `CC(C)(C)c1nc(CN2CCC(c3nc4cc(Cl)ccc4o3)CC2)no1` | -6.345% |
| `CC(C)Cc1cc(C(=O)NCC(c2ccc(F)cc2)N(C)C)n(C)n1` (configuration not stated) | -20.68% |
| `Cc1ccc(-c2nnc(CN3CCc4cnc(C)nc4C3)o2)cc1` | 32.39% |
| `Cc1csc(N2CCN(CCc3ccccn3)CC2C)n1` (configuration not stated) | -75.81% |
| `Cc1cccc2nc(CNC(=O)N3CCC(OCC4CC4)CC3)cn12` | -34.07% |
| `CCc1nc(C2CCCN2CC(=O)Nc2sc(C)c(C)c2C)no1` (configuration not stated) | 13.27% |
| `NC(=O)c1cc(C2CCCN(CCc3ccccn3)C2)n[nH]1` (configuration not stated) | -6.971% |
| `CC(C(=O)N(C)Cc1noc(C2CCC2)n1)N1CCc2ccccc2C1` (configuration not stated) | -15.74% |
| `CCCn1nccc1-c1nccnc1CC1CCN(C(C)=O)CC1` | -18.55% |
| `C1CN(CC2CCOCC2)Cc2c(COCC3CC3)nnn2C1.O=C(O)C(F)(F)F` | -94.09% |
| `CCN1CCC(CC(=O)N2CCCCC2CCn2cccn2)CC1` (configuration not stated) | -18.68% |
| `CCc1nccn1C1CCCN(C(=O)c2ccnc(C)n2)C1` (configuration not stated) | 6.887% |
| `COc1cc2c(cc1CN1CCc3sccc3C1C)OCO2` (configuration not stated) | -18.35% |
| `Cn1ccnc1-c1nccn1-c1cccc(CN2CCCC2)c1` | 0.1447% |
| `O=C(NCc1cc[nH]n1)NCC(O)COc1cccc(F)c1` (configuration not stated) | -30.2% |
| `CC(C)C[C@@H](N)C(=O)N(C)Cc1csc(C(C)C)n1` | 100.6% |
| `Cc1cc(S(=O)(=O)N2CC[C@@H](O)C2)c(Cl)cc1F` | -12.58% |
| `Cc1cc(C(=O)N2CCCN(c3nccs3)CC2)c(C)n1C(C)C` | -3.215% |
| `CCNc1ccnc(NCC2CNCCO2)n1` (configuration not stated) | -41.77% |
| `Cc1cc(C(=O)NCC2OCCc3cn(CC4CC4)nc32)c(C)[nH]1` (configuration not stated) | 4.156% |
| `Cc1cc(=O)n2ncnc2n1CC(O)c1cc(Cl)ccc1Cl` (configuration not stated) | -23.07% |
| `COc1c(Br)c(C(=O)NC2CCCC2)nn1C` | -8.442% |
| `CNCc1cn(C2CCN(C(=O)NCc3ccco3)CC2)nn1` | 0.4815% |
| `Cc1oc(-c2ccoc2)nc1CN1CCC[C@H]1CO` | -17.76% |
| `CN(Cc1cccc(C(F)(F)F)c1)Cc1nc(-c2cnccn2)no1` | 9.137% |
| `[H][C@@]12CCN(C(=O)c3ccoc3)C[C@@]1([H])O[C@H](c1ccncn1)C2` | 25.95% |
| `CCCNc1ncc(CN2CCN(C)C(=O)C2C)cn1` (configuration not stated) | -56.23% |

Repeated from the top, 9 entries:

| compound | Percent Effect |
|---|---|
| `CC(=O)N1CCCC(c2cccc(-n3ccnc3)n2)C1` (configuration not stated) | 11.75% |
| `CCN(Cc1ccncc1)C(=O)C1COc2c(cccc2OC)C1` (configuration not stated) | -51.82% |
| `CC(C)c1ccc(OCCC(=O)N2CCC(C(N)=O)CC2)cc1` | 3.192% |
| `CN(C)c1ncc(C2Nc3ccccc3C3=NCCCN32)cn1.Cl` (configuration not stated) | -6.507% |
| `CN(C)CCN(Cc1ccc(Cl)cc1)C(=O)c1cc[nH]n1` | -7.9% |
| `Cc1noc(NC(=O)c2ccc(F)cc2)n1` | 23.19% |
| `Cc1occc1C(=O)N1CCCn2cnc(CN3CCCC3=O)c2C1` | -53.83% |
| `Cc1cc(N2CCCC(c3[nH]ncc3Cc3ccccc3)C2)nc(N)n1` (configuration not stated) | -10.7% |
| `CS(=O)(=O)N[C@H]1CN(C(=O)CCc2ccco2)C[C@@H]1C1CC1` | 4.863% |